In this test the target is T1, Irr1-GFP (full-length) (S. cerevisiae) (UniProt P40541).
T1 sequence: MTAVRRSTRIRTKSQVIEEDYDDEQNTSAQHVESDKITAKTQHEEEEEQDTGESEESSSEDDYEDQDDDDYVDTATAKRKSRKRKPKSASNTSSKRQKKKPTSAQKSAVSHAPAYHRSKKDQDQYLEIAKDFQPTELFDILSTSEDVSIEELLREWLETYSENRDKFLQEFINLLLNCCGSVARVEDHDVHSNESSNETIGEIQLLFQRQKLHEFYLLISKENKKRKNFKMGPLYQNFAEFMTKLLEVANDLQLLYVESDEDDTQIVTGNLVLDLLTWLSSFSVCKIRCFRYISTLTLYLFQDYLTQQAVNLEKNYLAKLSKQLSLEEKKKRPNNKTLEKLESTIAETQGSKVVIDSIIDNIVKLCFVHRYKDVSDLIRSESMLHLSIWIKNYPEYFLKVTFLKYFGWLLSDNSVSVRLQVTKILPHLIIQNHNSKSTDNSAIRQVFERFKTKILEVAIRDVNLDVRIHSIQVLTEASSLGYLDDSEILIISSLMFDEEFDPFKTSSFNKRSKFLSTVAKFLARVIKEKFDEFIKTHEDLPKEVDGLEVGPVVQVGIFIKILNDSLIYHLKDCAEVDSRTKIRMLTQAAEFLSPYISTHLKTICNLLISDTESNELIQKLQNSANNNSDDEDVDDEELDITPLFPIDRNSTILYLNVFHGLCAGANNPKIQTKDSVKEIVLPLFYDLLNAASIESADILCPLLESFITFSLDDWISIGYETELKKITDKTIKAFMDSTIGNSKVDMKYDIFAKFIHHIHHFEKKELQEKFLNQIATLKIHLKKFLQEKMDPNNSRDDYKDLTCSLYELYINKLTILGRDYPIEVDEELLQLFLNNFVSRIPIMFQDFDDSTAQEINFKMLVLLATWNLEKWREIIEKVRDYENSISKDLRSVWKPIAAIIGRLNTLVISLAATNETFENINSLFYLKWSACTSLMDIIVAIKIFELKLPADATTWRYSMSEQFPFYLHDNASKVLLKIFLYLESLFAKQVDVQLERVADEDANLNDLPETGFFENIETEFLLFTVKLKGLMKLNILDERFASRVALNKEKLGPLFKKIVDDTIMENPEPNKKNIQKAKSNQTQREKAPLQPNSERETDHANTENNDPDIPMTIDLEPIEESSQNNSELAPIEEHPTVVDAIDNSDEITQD
In words: co-IP; lysate of cells nitrogen-starved 22 h in SD-N; anti-GFP or anti-RFP magnetic beads, 4 °C, 2 h; 50 mM Tris-HCl pH 7.5, 50 mM NaCl, 0.2% Triton X-100; Western blot with anti-RFP or anti-GFP. In general terms: In western blotting, separated proteins are transferred to a membrane and probed.

Results are given in words; binding and its absence hold for the method and conditions named. In cells and extracts the contact can be indirect. Binding can be weak; no strength is given. Where a sequence is shown, tags or fusion partners need not be part of it.

Imi1-RFP (full-length) (S. cerevisiae): the binding result is recorded as “binds”.

These data come from publication PMC5223379.
